Results are given in words; binding and its absence hold for the method and conditions named. In cells and extracts the contact can be indirect. These calls come from enrichment with a bait or labelling near it, and not all partners need be listed. Tags and fused reporters may be left off the sequences shown.
B1: UHRF1 (protein, UniProt Q8VDF2 1-782)
chain: MWIQVRTMDGKETHTVNSLSRLTKVQELRKKIEEVFHVEPQLQRLFYRGKQMEDGHTLFDYDVRLNDTIQLLVRQSLALPLSTKERDSELSDSDSGYGVGHSESDKSSTHGEGAAEADDKTVWEDTDLGLYKVNEYVDVRDNIFGAWFEAQVVQVQKRALSEDEPCSSSAVKTSEDDIMYHVKYDDYPEHGVDIVKAKNVRARARTVIPWENLEVGQVVMANYNVDYPRKRGFWYDVEICRKRQTRTARELYGNIRLLNDSQLNNCRIMFVDEVLMIELPKERRPLIASPSQPPPALRNTGKSGPSCRFCKDDENKPCRKCACHVCGGREAPEKQLLCDECDMAFHLYCLKPPLTSVPPEPEWYCPSCRTDSSEVVQAGEKLKESKKKAKMASATSSSRRDWGKGMACVGRTTECTIVPANHFGPIPGVPVGTMWRFRVQVSESGVHRPHVAGIHGRSNDGAYSLVLAGGYEDDVDNGNYFTYTGSGGRDLSGNKRTAGQSSDQKLTNNNRALALNCHSPINEKGAEAEDWRQGKPVRVVRNMKGGKHSKYAPAEGNRYDGIYKVVKYWPERGKSGFLVWRYLLRRDDTEPEPWTREGKDRTRQLGLTMQYPEGYLEALANKEKSRKRPAKALEQGPSSSKTGKSKQKSTGPTLSSPRASKKSKLEPYTLSEQQANLIKEDKGNAKLWDDVLTSLQDGPYQIFLSKVKEAFQCICCQELVFRPVTTVCQHNVCKDCLDRSFRAQVFSCPACRFELDHSSPTRVNQPLQTILNQLFPGYGSGR
B2: MCM5 (protein, UniProt P49718 1-734)
chain: MSGFDDPGIFYSDSFGGDPGAEEGQARKSQLQRRFKEFLRQYRVGTDRTGFTFKYRDELKRHYNLGEYWIEVEMEDLASFDEELADHLHKQPAEHLQLLEEAAKEVADEVTRPRPAGDELLQDIQVMLKSDASPSSIRILKSDMMSHLVKIPGIIISASAVRAKATRISIQCRSCHNTLTNIAMRPGLEGYALPRKCNMDQAGRPKCPLDPYFIMPDKCKCVDFQTLKLQELPDAVPHGEMPRHMQLYCDRYLCDKVVPGNRVTIMGIYSIKKFGLNPSKGRDRVGVGIRSSYIRVLGIQVDTDGSGRSFAGSVSPQEEEEFRRLAALPNIYELISKSISPSIFGGMDMKKAIACLLFGGSRKRLPDGLTRRGDINLLMLGDPGTAKSQLLKFVEKCSPIGVYTSGKGSSAAGLTASVIRDPSSRNFIMEGGAMVLADGGVVCIDEFDKMREDDRVAIHEAMEQQTISIAKAGITTTLNSRCSVLAAANSVFGRWDETKGEDNIDFMPTILSRFDMIFIVKDEHNEERDMMLAKHVMTLHVSALTQTQAVEGEIDLAKMKKFIAYCRARCGPRLSAEAAEKLKNRYIIMRSGARQHERDSDRRSSIPITVRQLEAIVRIAEALSKMKLQPFATEADVEEALRLFQVSTLDAALSGNLSGVEGFTTQEDQEMLSRIEKQLKRRFAIGSQVSEHSIVQDFTKQKYPEHAIRKVLQLMLRRGEIQHRMQRKVLYRLK
B3: MCM6 (protein, UniProt P97311 1-821)
chain: MDLAAAAEPGAGSQHPEVRDEVAEKCQKLFLDFLEEFQGSDGEIKYLQFAEELIRPERNTLVVSFADLEQFNQQLSTTIQEEFYRVYPYLCRALKTFVKDRKEIPFAKDFYVAFQDLPTRHKIRELTSSRIGLLTRISGQVVRTHPVHPELVSGTFLCLDCQTVIKDVEQQFKYTQPNICRNPVCANRKRFLLDTNKSRFVDFQKVRIQETQAELPRGSIPRSLEVILRAEAVESAQAGDRCDFTGALIVVPDVSKLSTPGARAETNSRVSGADGYETEGIRGLRALGVRDLSYRLVFLACHVAPTNPRFGGKELRDEEQTAESIKNQMTVKEWEKVFEMSQDKNLYHNLCTSLFPTIHGNDEVKRGVLLMLFGGVPKTTGEGTSLRGDINVCIVGDPSTAKSQFLKHVDEFSPRAVYTSGKASSAAGLTAAVVRDEESHEFVIEAGALMLADNGVCCIDEFDKMDMRDQVAIHEAMEQQTISITKAGVKATLNARTSILAAANPVSGHYDRSKSLKQNINLSAPIMSRFDLFFILVDECNEVTDYAIARRIVDLHSRIEESIDRVYSLDDIRRYLLFARQFKPKISKESEDFIVEQYKRLRQRDGSGVTKSSWRITVRQLESMIRLSESMARMHCCDEVQPKHVKEAFRLLNKSIIRVETPDVNLDQEEEIQMETDEGQGGVNGHADSPAPVNRFNGSSEDASQETVSKPSLRLGFAEYCRISNLIVLHLRKMEEEEDESALKRSELVNWYLKEIESEIDSEEELINKKTIIEKVVHRLTHYDHVLIELTQAGLKGSSEGSESYEEDPYLVVNPNYLLED
B4: TRIM27 (protein, UniProt Q62158 1-513)
chain: MASGSVAECLQQETTCPVCLQYFVEPMMLDCGHNICCACLARCWGAAETNVSCPQCRETFPQRHMRPNRHLANVTQLVKQLRTERPSGPGGEMGVCEKHREPLKLYCEQDQMPICVVCDRSREHRGHSVLPLEEAVEGFKEQIQNRLDHLRRVKDLKKRRRAQGEQARAELLSLTQMEREKIVWEFEQLYHSLKEHEYRLLARLEELDLAIYNSINGAITQFSCNISHLSGLIAQLEEKQQQPTRELLQDIGDTLSRAERIRIPEPWITPPDLQEKIHIFAQKCLFLTESLKQFTEKMQSDMEKIQELREAQLYSVDVTLDPDTAYPSLILSDNLRQVRYSYLQQDLPDNPERFNLFPCVLGSPCFIAGRHYWEVEVGDKAKWTIGVCEDSVCRKGGVTSAPQNGFWAVSLWYGKEYWALTSPMTALPLRTPLQRVGIFLDYDAGEVSFYNVTERCHTFTFSHATFCGPVRPYFSLSYSGGKSAAPLIICPMSGIDGFSGHVGNHGHSMETSP
B5: PCGF1 (protein, UniProt Q8R023 1-259)
chain: MASPQGGQIAIAMRLRNQLQSVYKMDPLRNEEEVRVKIKDLNEHIVCCLCAGYFVDATTITECLHTFCKSCIVKYLQTSKYCPMCNIKIHETQPLLNLKLDRVMQDIVYKLVPGLQDSEEKRIREFYQSRGLDRVSQPSGEEPALSNLGLPFSSFDHSKAHYYRYDEQLSLCLERLSSGKDKNKNVLQNKYVRCSVRAEVRHLRRVLCHRLMLNPQHVQLLFDNEVLPDHMTMKQLWLSRWFGKPSPLLLQYSVKEKRR
B6: MCMBP (protein, UniProt Q8R3C0 1-642)
chain: MPCGEDWLSHPLGIVQGFFAQNGVNPDWEKKVIEYFKEKLKENNAPKWVPSLNEVPLHYLKPNSFVKFRCMIQDMFDPEFYMGIYETVNQNTKARVLHFGKYRDVAECGPQQELDLSSPRSTTSERQTFYCVPVPGESSWVKEAYVNANQARVSPSTSYTPSRHKRSYEDDEDMDLQPSKQKEQHPGSRQAGGLGGLHWCGEPKRLETEASSGQQLNTLNLSSPFDLNFPLPGEKGPACLVKVYEDWDCFKVNDVLELYGVLSVDPVLSVLNSEERDASALLDPMECTDMAEEQRVHSPPASLVPRIHVILAQKLQHINPLLPTCLNKEESRSCQFVSNFMSELSPVRAELLGFLTHALLGDSLAAEYLILHLISTVYTRRDVLPLGKFTVNLSGCPQNSTFTEHLYRIIQHLVPASFRLQMTIENMNQLKLIPHKDYTANRLVSGLLQLPNNTSLVIDETLLEQGQLDTPGVHNVTALSNLITWQKVDYDFSYHQMEFPCNINVLITSEGRSLLPADCQIHLQPQLIPPNMEEYMNGLLSAVLPSVLNKFRIYLTLLRFLDYNLSDDITKAVEDDFVEMRKDDPQSITADDLHQLLVVARFLSLSVGQTTLSRERWLRAKQLELSRKARLQQQKSVNGNEL
B7: PPM1G (protein, UniProt Q61074 1-542)
chain: MGAYLSQPNTVKCSGDGVGAPRLPLPYGFSAMQGWRVSMEDAHNCIPELDNETAMFSVYDGHGGEEVALYCAKYLPDIIKDQKAYKEGKLQKALQDAFLAIDAKLTTEEVIKELAQIAGRPTEDEDDKDKVADEDDVDNEEAALLHEEATMTIEELLTRYGQNCQKVPPHTKSGIGTGDEPGPQGLNGEAGPEDPSRETPSQENGPTAKGHTGFSSNSEHGTEAGQISEPGTATGEAGPSCSSASDKLPRVAKSKFFEDSEDESDEVEEEEDDSEECSEDEDGYSSEEAENEEDEDDTEEAEEDDDEEMMVPGMEGKEEPGSDSGTTAVVALIRGKQLIVANAGDSRCVVSEAGKALDMSYDHKPEDEVELARIKNAGGKVTMDGRVNGGLNLSRAIGDHFYKRNKNLPPQEQMISALPDIKVLTLTDDHEFMVIACDGIWNVMSSQEVVDFIQSKISQRDENGELRLLSSIVEELLDQCLAPDTSGDGTGCDNMTCIIICFKPRNTVELQAESGKRKLEEALSTEGAEDTGNSDKKKAKRD
B8: MCM3 (protein, UniProt P25206 1-812)
chain: MAGTVVLDDVELREAQRDYLDFLDDEEDQGIYQNKVRELISDNQYRLIVSVNDLRRKNEKRANRLLNNAFEELVAFQRALKDFVASIDATYAKQYEEFYIGLEGSFGSKHVSPRTLTSCFLSCVVCVEGIVTKCSLVRPKVVRSVHYCPATKKTIERRYSDLTTLVAFPSSSVYPTKDEENNPLETEYGLSVYKDHQTITIQEMPEKAPAGQLPRSVDVILDDDLVDKVKPGDRIQVVGTYRCLPGKKGCYTSGTFRTVLIACNVKQMSKDIQPAFSADDIAKIKKFSKTRSKDVFEQLARSLAPSIHGHDYVKKAILCLLLGGVERELENGSHIRGDINILLIGDPSVAKSQLLRYVLCTAPRAIPTTGRGSSGVGLTAAVTTDQETGERRLEAGAMVLADRGVVCIDEFDKMSDMDRTAIHEVMEQGRVTIAKAGIHARLNARCSVLAAANPVYGRYDQYKTPMENIGLQDSLLSRFDLLFIMLDQMDPEQDREISDHVLRMHQYRAPGEQDGDALPLGSSVDILATDDPDFTQDDQQDTRIYEKHDSLLHGTKKKKEKMVSAAFMKKYIHVAKIIKPTLTQESAAYIAEEYSRLRSQDSMSSDTARTSPVTARTLETLIRLATAHAKARMSKTVDLQDAEEAVELVQYAYFKKVLEKEKKRKKASEDESDLEDEEEKSQEDTEQKRKRRKTHAKDGESYDPYDFSEAETQMPQVHTPKTDDSQEKTDDSQETQDSQKVELSEPRLKAFKAALLEVFQEAHEQSVGMLHLTESINRNREEPFSSEEIQACLSRMQDDNQVMVSEGIVFLI

Amino acid sequences for entries named in this document (tags omitted).
UniProt Q6A4J8: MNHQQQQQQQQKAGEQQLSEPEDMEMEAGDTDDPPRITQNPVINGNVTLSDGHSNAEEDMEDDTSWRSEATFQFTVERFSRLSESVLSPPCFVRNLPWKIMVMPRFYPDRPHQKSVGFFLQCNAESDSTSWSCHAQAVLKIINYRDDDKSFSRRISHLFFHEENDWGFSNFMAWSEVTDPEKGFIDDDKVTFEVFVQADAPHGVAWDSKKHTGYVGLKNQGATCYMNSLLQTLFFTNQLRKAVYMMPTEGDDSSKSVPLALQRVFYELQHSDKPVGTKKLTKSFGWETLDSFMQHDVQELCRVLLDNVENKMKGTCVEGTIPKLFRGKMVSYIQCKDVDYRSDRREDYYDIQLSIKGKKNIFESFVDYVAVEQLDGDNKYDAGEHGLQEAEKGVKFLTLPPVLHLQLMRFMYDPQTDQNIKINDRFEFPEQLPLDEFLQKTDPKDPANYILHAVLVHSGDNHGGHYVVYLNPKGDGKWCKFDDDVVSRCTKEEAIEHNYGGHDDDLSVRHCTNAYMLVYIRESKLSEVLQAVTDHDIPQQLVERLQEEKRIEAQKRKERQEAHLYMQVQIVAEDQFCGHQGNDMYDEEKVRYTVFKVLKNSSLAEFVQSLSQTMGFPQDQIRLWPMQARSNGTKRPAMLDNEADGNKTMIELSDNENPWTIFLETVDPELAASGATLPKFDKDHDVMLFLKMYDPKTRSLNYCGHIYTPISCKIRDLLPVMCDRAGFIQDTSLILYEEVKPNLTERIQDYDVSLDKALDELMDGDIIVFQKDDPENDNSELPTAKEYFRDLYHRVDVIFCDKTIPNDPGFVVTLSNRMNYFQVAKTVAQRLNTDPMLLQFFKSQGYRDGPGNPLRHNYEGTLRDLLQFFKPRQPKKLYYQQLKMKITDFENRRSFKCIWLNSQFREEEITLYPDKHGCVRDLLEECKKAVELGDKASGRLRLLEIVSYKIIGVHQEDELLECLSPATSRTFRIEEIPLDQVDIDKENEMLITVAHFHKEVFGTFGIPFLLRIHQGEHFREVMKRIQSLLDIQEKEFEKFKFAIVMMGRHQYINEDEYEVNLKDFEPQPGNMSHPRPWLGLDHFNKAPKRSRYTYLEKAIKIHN
UniProt P59178: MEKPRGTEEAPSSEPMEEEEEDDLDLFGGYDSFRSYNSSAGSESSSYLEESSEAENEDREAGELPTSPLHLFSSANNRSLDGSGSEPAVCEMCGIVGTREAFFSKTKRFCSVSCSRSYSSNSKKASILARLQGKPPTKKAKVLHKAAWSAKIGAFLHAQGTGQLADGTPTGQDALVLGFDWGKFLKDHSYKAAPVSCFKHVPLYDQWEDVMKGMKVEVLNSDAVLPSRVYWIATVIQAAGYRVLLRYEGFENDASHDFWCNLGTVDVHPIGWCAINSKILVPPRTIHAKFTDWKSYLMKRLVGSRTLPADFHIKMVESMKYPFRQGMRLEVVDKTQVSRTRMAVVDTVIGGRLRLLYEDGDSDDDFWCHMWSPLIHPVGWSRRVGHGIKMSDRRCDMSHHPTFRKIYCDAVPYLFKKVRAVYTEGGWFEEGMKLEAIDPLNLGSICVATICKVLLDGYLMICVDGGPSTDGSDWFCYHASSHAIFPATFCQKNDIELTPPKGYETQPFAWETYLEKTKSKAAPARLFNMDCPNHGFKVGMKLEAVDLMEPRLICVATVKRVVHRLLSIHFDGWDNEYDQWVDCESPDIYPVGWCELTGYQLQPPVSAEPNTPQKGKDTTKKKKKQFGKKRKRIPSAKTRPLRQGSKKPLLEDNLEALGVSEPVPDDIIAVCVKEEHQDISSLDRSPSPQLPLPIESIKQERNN
UniProt P70388: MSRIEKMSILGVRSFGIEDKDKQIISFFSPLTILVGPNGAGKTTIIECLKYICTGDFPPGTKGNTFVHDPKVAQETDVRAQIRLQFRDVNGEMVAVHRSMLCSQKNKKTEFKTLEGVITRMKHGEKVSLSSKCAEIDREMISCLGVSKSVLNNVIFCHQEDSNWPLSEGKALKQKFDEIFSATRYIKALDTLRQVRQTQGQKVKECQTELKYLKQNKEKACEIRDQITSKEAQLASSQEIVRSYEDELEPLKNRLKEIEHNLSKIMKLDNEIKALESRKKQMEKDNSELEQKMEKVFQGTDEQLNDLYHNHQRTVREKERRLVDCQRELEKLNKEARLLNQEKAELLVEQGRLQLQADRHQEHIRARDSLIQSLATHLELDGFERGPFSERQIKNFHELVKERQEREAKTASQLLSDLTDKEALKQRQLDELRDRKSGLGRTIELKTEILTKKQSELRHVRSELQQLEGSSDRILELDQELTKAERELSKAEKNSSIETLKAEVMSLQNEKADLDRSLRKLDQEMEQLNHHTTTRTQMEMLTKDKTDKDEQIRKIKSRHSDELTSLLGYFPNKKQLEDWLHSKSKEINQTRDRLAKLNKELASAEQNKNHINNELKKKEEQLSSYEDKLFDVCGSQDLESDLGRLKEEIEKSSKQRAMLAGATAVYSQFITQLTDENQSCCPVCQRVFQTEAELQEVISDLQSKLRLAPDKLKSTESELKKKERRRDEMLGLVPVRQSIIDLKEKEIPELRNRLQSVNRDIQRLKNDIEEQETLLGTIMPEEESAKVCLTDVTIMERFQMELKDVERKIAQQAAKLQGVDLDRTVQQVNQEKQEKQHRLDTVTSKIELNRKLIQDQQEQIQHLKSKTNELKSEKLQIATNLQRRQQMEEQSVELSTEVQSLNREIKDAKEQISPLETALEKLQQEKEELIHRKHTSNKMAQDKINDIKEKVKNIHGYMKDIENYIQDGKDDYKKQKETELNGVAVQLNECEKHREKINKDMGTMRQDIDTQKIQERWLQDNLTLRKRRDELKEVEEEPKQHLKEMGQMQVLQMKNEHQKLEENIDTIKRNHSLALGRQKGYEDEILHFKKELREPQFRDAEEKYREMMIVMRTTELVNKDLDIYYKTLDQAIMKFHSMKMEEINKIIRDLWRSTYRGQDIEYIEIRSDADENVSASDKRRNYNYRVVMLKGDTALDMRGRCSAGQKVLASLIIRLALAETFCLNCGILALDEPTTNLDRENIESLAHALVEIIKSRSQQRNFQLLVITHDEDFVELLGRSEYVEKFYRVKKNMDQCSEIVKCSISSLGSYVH
UniProt Q61881: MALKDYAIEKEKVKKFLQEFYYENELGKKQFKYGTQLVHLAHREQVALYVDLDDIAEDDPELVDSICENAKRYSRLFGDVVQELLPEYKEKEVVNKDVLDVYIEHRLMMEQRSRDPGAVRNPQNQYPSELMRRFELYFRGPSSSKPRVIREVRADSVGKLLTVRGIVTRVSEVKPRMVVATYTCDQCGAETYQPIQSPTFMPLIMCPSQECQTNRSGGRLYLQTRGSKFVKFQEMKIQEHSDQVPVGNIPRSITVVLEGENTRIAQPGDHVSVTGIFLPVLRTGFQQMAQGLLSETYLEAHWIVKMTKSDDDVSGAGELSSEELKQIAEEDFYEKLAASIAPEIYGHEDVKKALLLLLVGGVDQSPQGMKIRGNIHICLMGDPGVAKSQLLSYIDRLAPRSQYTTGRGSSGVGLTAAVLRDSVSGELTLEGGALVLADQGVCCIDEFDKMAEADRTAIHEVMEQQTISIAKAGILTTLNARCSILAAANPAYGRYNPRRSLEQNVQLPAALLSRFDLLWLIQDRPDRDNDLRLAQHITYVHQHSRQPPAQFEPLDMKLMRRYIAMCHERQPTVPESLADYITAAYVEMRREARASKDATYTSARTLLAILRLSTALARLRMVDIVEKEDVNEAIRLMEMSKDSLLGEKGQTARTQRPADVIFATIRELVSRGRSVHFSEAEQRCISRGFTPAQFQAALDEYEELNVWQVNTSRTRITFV
UniProt P13864: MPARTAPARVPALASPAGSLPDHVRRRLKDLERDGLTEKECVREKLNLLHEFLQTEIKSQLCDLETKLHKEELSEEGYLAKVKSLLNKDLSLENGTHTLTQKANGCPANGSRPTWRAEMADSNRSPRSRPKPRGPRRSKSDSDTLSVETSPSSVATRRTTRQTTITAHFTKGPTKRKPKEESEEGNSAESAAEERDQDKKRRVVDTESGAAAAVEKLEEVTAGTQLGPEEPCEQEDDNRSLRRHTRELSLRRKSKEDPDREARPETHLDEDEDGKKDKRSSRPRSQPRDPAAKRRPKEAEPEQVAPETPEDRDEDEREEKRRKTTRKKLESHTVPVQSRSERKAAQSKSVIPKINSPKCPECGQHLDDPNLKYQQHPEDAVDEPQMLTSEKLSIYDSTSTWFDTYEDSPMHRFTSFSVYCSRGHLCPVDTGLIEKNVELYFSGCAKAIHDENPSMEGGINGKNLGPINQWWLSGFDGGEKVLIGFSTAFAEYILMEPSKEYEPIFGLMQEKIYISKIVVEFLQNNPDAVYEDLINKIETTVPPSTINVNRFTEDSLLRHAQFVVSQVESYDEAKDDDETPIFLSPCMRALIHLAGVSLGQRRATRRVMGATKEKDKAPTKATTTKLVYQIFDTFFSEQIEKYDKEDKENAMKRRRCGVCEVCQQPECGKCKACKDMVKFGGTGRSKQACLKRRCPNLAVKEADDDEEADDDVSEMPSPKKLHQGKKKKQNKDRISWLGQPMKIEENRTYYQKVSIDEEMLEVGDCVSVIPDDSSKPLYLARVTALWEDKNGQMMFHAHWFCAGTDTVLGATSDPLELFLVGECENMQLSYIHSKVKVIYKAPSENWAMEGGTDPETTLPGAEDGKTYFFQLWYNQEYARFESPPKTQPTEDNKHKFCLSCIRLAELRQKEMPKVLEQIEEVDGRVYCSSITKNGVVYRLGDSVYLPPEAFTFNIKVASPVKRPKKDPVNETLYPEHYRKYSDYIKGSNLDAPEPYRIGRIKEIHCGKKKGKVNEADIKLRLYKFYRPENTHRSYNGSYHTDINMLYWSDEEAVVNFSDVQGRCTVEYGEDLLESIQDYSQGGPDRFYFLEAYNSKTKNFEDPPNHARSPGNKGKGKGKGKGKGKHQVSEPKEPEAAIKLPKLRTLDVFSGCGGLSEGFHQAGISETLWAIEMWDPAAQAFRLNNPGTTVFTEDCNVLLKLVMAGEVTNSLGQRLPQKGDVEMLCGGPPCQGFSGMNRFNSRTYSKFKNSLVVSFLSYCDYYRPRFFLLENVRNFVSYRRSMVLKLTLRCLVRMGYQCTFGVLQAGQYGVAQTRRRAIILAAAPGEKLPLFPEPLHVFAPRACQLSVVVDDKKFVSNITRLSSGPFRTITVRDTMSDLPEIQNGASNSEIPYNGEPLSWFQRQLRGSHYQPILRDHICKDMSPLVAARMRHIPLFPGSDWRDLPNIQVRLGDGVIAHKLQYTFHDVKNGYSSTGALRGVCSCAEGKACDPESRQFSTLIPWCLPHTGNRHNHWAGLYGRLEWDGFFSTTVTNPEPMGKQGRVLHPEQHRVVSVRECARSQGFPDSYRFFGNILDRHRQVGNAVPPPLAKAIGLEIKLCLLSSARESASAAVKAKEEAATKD
UniProt Q99K46: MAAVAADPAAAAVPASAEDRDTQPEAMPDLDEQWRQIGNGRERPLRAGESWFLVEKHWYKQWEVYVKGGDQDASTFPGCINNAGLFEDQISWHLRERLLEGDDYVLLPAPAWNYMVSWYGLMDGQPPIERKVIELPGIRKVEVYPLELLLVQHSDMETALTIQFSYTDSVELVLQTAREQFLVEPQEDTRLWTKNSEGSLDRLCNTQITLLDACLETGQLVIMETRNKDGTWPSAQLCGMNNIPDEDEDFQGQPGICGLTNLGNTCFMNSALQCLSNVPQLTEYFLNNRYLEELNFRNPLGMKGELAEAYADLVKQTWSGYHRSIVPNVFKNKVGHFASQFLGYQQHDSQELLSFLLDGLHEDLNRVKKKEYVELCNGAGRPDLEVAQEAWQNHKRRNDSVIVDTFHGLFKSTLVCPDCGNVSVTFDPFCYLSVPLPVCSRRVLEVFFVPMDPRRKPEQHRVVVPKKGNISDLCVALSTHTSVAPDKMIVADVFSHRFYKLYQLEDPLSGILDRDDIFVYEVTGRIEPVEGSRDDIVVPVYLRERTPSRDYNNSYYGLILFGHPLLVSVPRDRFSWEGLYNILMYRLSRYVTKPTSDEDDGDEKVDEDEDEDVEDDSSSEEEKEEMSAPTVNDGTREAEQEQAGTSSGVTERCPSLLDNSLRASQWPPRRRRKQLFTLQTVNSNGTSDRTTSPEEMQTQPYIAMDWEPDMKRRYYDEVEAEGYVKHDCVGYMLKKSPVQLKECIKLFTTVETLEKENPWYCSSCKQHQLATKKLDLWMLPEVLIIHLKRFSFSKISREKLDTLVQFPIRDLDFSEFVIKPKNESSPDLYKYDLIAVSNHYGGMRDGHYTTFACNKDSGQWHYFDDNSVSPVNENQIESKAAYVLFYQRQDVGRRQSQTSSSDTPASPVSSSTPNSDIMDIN

Target: USP7 (mouse (endogenous in E14TG2a ES cells)) (UniProt Q6A4J8)
Assay: affinity purification with mass spectrometry; anti-USP7 immunoprecipitation of endogenous USP7 from WT mESC lysate, Usp7-KO ES cells as control, three independent experiments; nanoLC-MS/MS, spectral counts; enriched: fold change >4 and adjusted P <0.05

binding, binds:
L3MBTL2 (from UniProt P59178 1-703), RAD50 (from UniProt P70388 1-1312), TRIP12 (from UniProt G5E870 1-2025), BCORL1 (from UniProt A2AQH4 1-1781), MGA (from UniProt A2AWL7 1-3003), MCM7 (from UniProt Q61881 1-719), RING1A (from UniProt O35730 1-406), DNMT1 (from UniProt P13864 1-1620), USP11 (from UniProt Q99K46 1-921), RING1B (from UniProt Q9CQJ4 1-336), GMPS (from UniProt Q3THK7 1-693), BCOR (from UniProt Q8CGN4 1-1759), B1, B2, B3, B4, B5, B6, B7, B8

— publication PMC10123117
